In US20180044422A1, “TREATING SOLID TUMOR BY TARGETING DECTIN-1 SIGNALING” (New York University, priority 2016, published 2018):
Results are given in words; binding and its absence hold for the method and conditions named. For some of these results: In cells and extracts the contact can be indirect. Some entries that bind do so weakly or less than the wild type. Tags and fused reporters may be left off the sequences shown.

Sequences of proteins named here, by UniProt entry; tags and fusion partners are left off. A change or cut given only in a name is not applied to a line headed by its entry.
UniProt O08573: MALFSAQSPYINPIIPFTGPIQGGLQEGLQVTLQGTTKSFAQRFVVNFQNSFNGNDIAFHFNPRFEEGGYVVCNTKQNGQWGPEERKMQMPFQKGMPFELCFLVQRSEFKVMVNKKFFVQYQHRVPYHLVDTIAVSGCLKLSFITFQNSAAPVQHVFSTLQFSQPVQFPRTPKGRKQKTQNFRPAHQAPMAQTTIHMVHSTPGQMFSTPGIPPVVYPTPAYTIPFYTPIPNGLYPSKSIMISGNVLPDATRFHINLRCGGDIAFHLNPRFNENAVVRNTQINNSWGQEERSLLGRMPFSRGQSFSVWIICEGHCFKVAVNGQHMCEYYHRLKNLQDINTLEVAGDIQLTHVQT

Assays:
[1] = molecular target: recombinant mouse Galectin-9 (R&D Systems) (mouse) (UniProt O08573); test: ELISA, plates coated with Gal-9, Gal-3 or Gal-4 in parallel, Dectin-1 IgG Fc at 2.5 µg/ml, detection with anti-IgG-HRP. The sheet draws one bar per galectin and does not name the Fc protein [cont.) I]
[2] = molecular target: recombinant mouse Galectin-9 (R&D Systems) (mouse) (UniProt O08573); test: pull-down on protein G beads with Galectin-9 pre-incubated with 100 mM lactose, SDS-PAGE, Coomassie Blue
[3] = molecular target: recombinant mouse Galectin-9 (R&D Systems) (mouse) (UniProt O08573); test: ELISA, Galectin-9-coated plate, increasing doses of Dectin-1 IgG Fc, anti-IgG-HRP
[4] = molecular target: recombinant mouse Galectin-9 (R&D Systems) (mouse) (UniProt O08573); test: Pull-down of recombinant mouse Galectin-9 with Dectin-1 IgG Fc on protein G beads, with or without 100 mM lactose; SDS-PAGE, Coomassie Blue [cont.) K]
[5] = molecular target: Galectin-9 (Lgals9), endogenous, from KPC tumor cell lysate or KC pancreatic tissue extract (mouse) (UniProt O08573); test: precipitation from pancreatic tissue extract of 6 month-old KC mice, Western blot for Galectin-9
[6] = molecular target: recombinant mouse Galectin-9 (R&D Systems) (mouse) (UniProt O08573); test: protein G magnetic beads loaded with Dectin-1 IgG Fc, recombinant Galectin-9, fluorescent anti-Galectin-9, flow cytometry
[7] = molecular target: Galectin-9 (Lgals9), endogenous, from KPC tumor cell lysate or KC pancreatic tissue extract (mouse) (UniProt O08573); test: Precipitation from the pancreatic tissue extract of 6 month-old KC mice with Dectin-1 IgG Fc on protein G beads, Western blot for Galectin-9 [cont.) J]
[8] = molecular target: recombinant mouse Galectin-9 (R&D Systems) (mouse) (UniProt O08573); test: ELISA, plate coated with Galectin-9, increasing doses of murine Dectin-1 IgG Fc, detection with anti-IgG-HRP [cont.) G]
[9] = molecular target: recombinant mouse Galectin-9 (R&D Systems) (mouse) (UniProt O08573); test: Pull-down of recombinant mouse Galectin-9 with PNGase F treated Dectin-1 IgG Fc on protein G beads; SDS-PAGE, Coomassie Blue [cont.) K]
[10] = molecular target: recombinant mouse Galectin-9 (R&D Systems) (mouse) (UniProt O08573); test: pull-down on protein G beads, SDS-PAGE, Coomassie Blue

Measured: binding

B1: human IgG Fc-conjugated Dectin-1 fusion protein (murine Dectin-1 IgG Fc; fc-mdec1a, InvivoGen) (Fc fusion, mouse, UniProt Q6QLQ4 69-244, looked up, not shown: a dimerising Fc or GST)
chain: EYGHNSGRNPEEKDNFLSRNKENHKPTESSLDEKVAPSKASQTTGGFSQPCLPNWIMHGKSCYLFSFSGNSWYGSKRHCSQLGAHLLKIDNSKEFEFIESQTSSHRINAFWIGLSRNQSEGPWFWEDGSAFFPNSFQVRNTAPQESLLHNCVWIHGSEVYNQICNTSSYSICEKEL
not listed: [9] | [10]
binds: all other assays above

B2: Dectin-1 IgG Fc treated with PNGase F (Fc fusion, mouse, UniProt Q6QLQ4 69-244, looked up, not shown: a dimerising Fc or GST)
chain: EYGHNSGRNPEEKDNFLSRNKENHKPTESSLDEKVAPSKASQTTGGFSQPCLPNWIMHGKSCYLFSFSGNSWYGSKRHCSQLGAHLLKIDNSKEFEFIESQTSSHRINAFWIGLSRNQSEGPWFWEDGSAFFPNSFQVRNTAPQESLLHNCVWIHGSEVYNQICNTSSYSICEKEL
modifications: N-linked glycans cleaved with PNGase F (non-denaturing protocol, 37 C, 24 hr)
binds: [9] | [10]
